# Measured values as given in the supplement of paper PMC8728848.
# The other results are listed elsewhere or left out.
# B1: pullulanase (Streptococcus pyogenes), Q8KLP1 (protein)
# chain: MKKKVNQGSKRYQYLLKKWGIGFVIAATGTVMLGCIPSILTHQVAAKTIVGLARDEAQQGDGNAKSGDGFQSSSKEAKPVLDSSSANPASIAEHHLRMHFKTLPAGESLGSLGLWVWGDVDQPSKDWPNGAITMTKAKKDDYGYYLDVPLAAKHRQQVSYLINNKAGENLSKDQHIPLLTPKMNEVWIDENYHAHAYRPLKKGYLRINYHNQSGHYDNLAVWTFKDVKTPTTDWPNGLDLSHKGPYGAYVDVPLKEGANEIGFLILDKSKTGDAIKVQPKDYLFKELDNHTQVFVKDTDPKVYNNPYYIDQVSLKGAEQTTPNEIKAIFTTLDGLDEDAVKQNIKITDKAGKTVAIDELTLDKDKSVMTLKGDFKAQGAVYTVTFGEVSQVARQSWQLKDKLYAYDGELGATLAKDGSVDLALWSPSADSVKVVVYDKQDQTKVVGQADLTKSDKGVWRAHLTSDSVKGISDYTGYYYLYEITRGQEKVMVLDPYAKSLAAWNDATATDDIKTAKAAFIDPSKLGPTGLDFAKINNFKKREDAIIYEAHVRDFTSDKALEGKLTHPFGTFSAFVEQLDYLKDLGVTHVQLLPVLSYFYANELDKTRSTAYTSSDNNYNWGYDPQHYFALSGMYSANPNDPALRIAELKNLVNEIHKRGMGVIFDVVYNHTARTYLFEDLEPNYYHFMNADGTARESFGGGRLGTTHAMSRRILVDSITYLTREFKVDGFRFDMMGDHDAAAIEQAFKAAKAINPNTIMIGEGWRTYQGDEGKKEIAADQDWMKATNTVGVFSDDIRNTLKSGFPNEGTAAFITGGAKNLEGLFKTIKAQPSNFEADAPGDVVQYIAAHDNLTLHDVIAKSINKDPKVAEEEIHKRIRLGNTMILTAQGTAFIHSGQEYGRTKQLLNPDYKTKVSDDKVPNKATLIDAVAQYPYFIHDSYDSSDAVNHFDWAKATDSIAHPISNQTKAYTQGLIALRRSTDAFTKATKAEVDRDVTLITQAGQDGIQQEDLIMGYQTVASNGDRYAVFVNADNKTRKVVLPQAYRYLLGAQVLADAEQVGVTAIAKPKGVQFTKEGLTIDGLTALVLKVSSKTANPSQQKSQTDNHQTKTPDGSKDLDKSLMTRPKRAKTNQKLPKTGEAPSKGLLAAGVALLLLAISLLMKRQKD
# Key:
# Test in all cases: glycan array binding signal (z-score within array); higher = stronger binding
# Conditions in all cases: glycan notation: IUPAC condensed, linker removed
# [1] = target: Fuc(a1-2)[GalNAc(a1-3)]Gal(b1-4)GlcNAc(b1-3)GalNAc
# Procedure, shortened: (§1)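 Glycan array data came from 3228 arrays in the Consortium for Functional Glycomics database, and only arrays with an available protein sequence were kept. Glycan names were put into IUPAC-condensed notation, and columns mapping to the same glycan were averaged. The binding signal is a within-array Z-score, averaged across arrays of one protein sequence run at different concentrations or buffers and across linkers. A negative Z-score can be read as non-binding.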
# [2] = target: Fuc(a1-2)[GalNAc(a1-3)]Gal(b1-4)[Fuc(a1-3)]GlcNAc
# Procedure, shortened: as §1
# [3] = target: Fuc(a1-2)[GalNAc(a1-3)]Gal(b1-4)[Fuc(a1-3)]GlcNAc(b1-3)GalNAc
# Procedure, shortened: as §1
# [4] = target: Fuc(a1-2)[GalNAc(a1-4)]Gal(b1-4)GlcNAc
# Procedure, shortened: as §1
# [5] = target: Fuc(a1-2)[GalNAc(b1-3)]Gal
# Procedure, shortened: as §1
# [6] = target: Fuc(a1-3)GlcNAc
# Procedure, shortened: as §1
# [7] = target: Fuc(a1-3)[Gal(b1-4)]Glc6S
# Procedure, shortened: as §1
# [8] = target: Fuc(a1-3)[Gal(b1-4)]GlcNAc
# Procedure, shortened: as §1
# [9] = target: Fuc(a1-3)[Gal(b1-4)]GlcNAc(b1-2)Man(a1-3)[Fuc(a1-3)[Gal(b1-4)]GlcNAc(b1-2)Man(a1-6)]Man(b1-4)GlcNAc(b1-4)GlcNAc
# Procedure, shortened: as §1
# [10] = target: Fuc(a1-3)[Gal(b1-4)]GlcNAc(b1-2)Man(a1-3)[Fuc(a1-3)[Gal(b1-4)]GlcNAc(b1-2)Man(a1-6)]Man(b1-4)GlcNAc(b1-4)[Fuc(a1-6)]GlcNAc
# Procedure, shortened: as §1
# [11] = target: Fuc(a1-3)[Gal(b1-4)]GlcNAc(b1-3)Gal(b1-3)[Fuc(a1-4)]GlcNAc
# Procedure, shortened: as §1
# [12] = target: Fuc(a1-3)[Gal(b1-4)]GlcNAc(b1-3)GalNAc
# Procedure, shortened: as §1
# [13] = target: Fuc(a1-3)[Gal(b1-4)]GlcNAc(b1-4)Gal(b1-4)[Fuc(a1-3)]GlcNAc
# Procedure, shortened: as §1
# [14] = target: Fuc(a1-3)[Gal(b1-4)]GlcNAc(b1-4)Gal(b1-4)[Fuc(a1-3)]GlcNAc(b1-4)Gal(b1-4)[Fuc(a1-3)]GlcNAc
# Procedure, shortened: as §1
# [15] = target: Fuc(a1-3)[Gal(b1-4)]GlcNAc(b1-6)[Gal(b1-3)GlcNAc(b1-3)]Gal(b1-4)Glc
# Procedure, shortened: as §1
# [16] = target: Fuc(a1-3)[Gal(b1-4)]GlcNAc6S
# Procedure, shortened: as §1
# [17] = target: Fuc(a1-3)[Gal3S(b1-4)]GlcNAc
# Procedure, shortened: as §1
# [18] = target: Fuc(a1-3)[Gal3S(b1-4)]GlcNAc6S
# Procedure, shortened: as §1
# [19] = target: Fuc(a1-3)[GalNAc(b1-4)]GlcNAc
# Procedure, shortened: as §1
# [20] = target: Fuc(a1-4)GlcNAc
# Procedure, shortened: as §1
# [21] = target: Fuc(b1-3)GlcNAc
# Procedure, shortened: as §1
# [22] = target: Gal(a1-2)Gal
# Procedure, shortened: as §1
# [23] = target: Gal(a1-3)Gal
# Procedure, shortened: as §1
# [24] = target: Gal(a1-3)Gal(b1-3)GlcNAc
# Procedure, shortened: as §1
# [25] = target: Gal(a1-3)Gal(b1-3)GlcNAc(b1-2)Man(a1-3)[Gal(a1-3)Gal(b1-3)GlcNAc(b1-2)Man(a1-6)]Man(b1-4)GlcNAc(b1-4)GlcNAc
# Procedure, shortened: as §1
# [26] = target: Gal(a1-3)Gal(b1-3)GlcNAc(b1-3)GalNAc
# Procedure, shortened: as §1
# [27] = target: Gal(a1-3)Gal(b1-3)[Fuc(a1-4)]GlcNAc(b1-2)Man(a1-3)[Gal(a1-3)Gal(b1-3)[Fuc(a1-4)]GlcNAc(b1-2)Man(a1-6)]Man(b1-4)GlcNAc(b1-4)GlcNAc
# Procedure, shortened: as §1
# [28] = target: Gal(a1-3)Gal(b1-4)Glc
# Procedure, shortened: as §1
# [29] = target: Gal(a1-3)Gal(b1-4)GlcNAc
# Procedure, shortened: as §1
# [30] = target: Gal(a1-3)Gal(b1-4)GlcNAc(b1-3)GalNAc
# Procedure, shortened: as §1
# [31] = target: Gal(a1-3)Gal(b1-4)[Fuc(a1-3)]GlcNAc
# Procedure, shortened: as §1
# [32] = target: Gal(a1-3)Gal(b1-4)[Fuc(a1-3)]GlcNAc(b1-2)Man(a1-3)[Gal(a1-3)Gal(b1-4)[Fuc(a1-3)]GlcNAc(b1-2)Man(a1-6)]Man(b1-4)GlcNAc(b1-4)GlcNAc
# Procedure, shortened: as §1
# [33] = target: Gal(a1-3)GalNAc
# Procedure, shortened: as §1
# [34] = target: Gal(a1-3)[Gal(a1-4)]Gal(b1-4)GlcNAc
# Procedure, shortened: as §1
# [35] = target: Gal(a1-4)Gal(b1-3)GlcNAc(b1-2)Man(a1-3)[Gal(a1-4)Gal(b1-3)GlcNAc(b1-2)Man(a1-6)]Man(b1-4)GlcNAc(b1-4)GlcNAc
# Procedure, shortened: as §1
# [36] = target: Gal(a1-4)Gal(b1-4)Glc
# Procedure, shortened: as §1
# [37] = target: Gal(a1-4)Gal(b1-4)GlcNAc
# Procedure, shortened: as §1
# [38] = target: Gal(a1-4)Gal(b1-4)GlcNAc(b1-2)Man(a1-3)[Gal(a1-4)Gal(b1-4)GlcNAc(b1-2)Man(a1-6)]Man(b1-4)GlcNAc(b1-4)GlcNAc
# Procedure, shortened: as §1
# [39] = target: Gal(a1-4)Gal(b1-4)GlcNAc(b1-3)Gal(b1-4)Glc
# Procedure, shortened: as §1
# [40] = target: Gal(a1-4)GlcNAc
# Procedure, shortened: as §1
# [41] = target: Gal(a1-6)Glc
# Procedure, shortened: as §1
# [42] = target: Gal(b1-2)Gal
# Procedure, shortened: as §1
# [43] = target: Gal(b1-3)Gal
# Procedure, shortened: as §1
# [44] = target: Gal(b1-3)Gal(b1-4)GlcNAc
# Procedure, shortened: as §1
# [45] = target: Gal(b1-3)Gal(b1-4)GlcNAc(b1-2)Man(a1-3)[Gal(b1-3)Gal(b1-4)GlcNAc(b1-2)Man(a1-6)]Man(b1-4)GlcNAc(b1-4)GlcNAc
# Procedure, shortened: as §1
binder,measurement,setting,value
B1,glycan array binding signal (z-score),[1],0.614
same,glycan array binding signal (z-score),[2],-0.025
same,glycan array binding signal (z-score),[3],1.05
same,glycan array binding signal (z-score),[4],2.36
same,glycan array binding signal (z-score),[5],-0.628
same,glycan array binding signal (z-score),[6],-0.696
same,glycan array binding signal (z-score),[7],-0.252
same,glycan array binding signal (z-score),[8],0.546
same,glycan array binding signal (z-score),[9],0.313
same,glycan array binding signal (z-score),[10],-0.639
same,glycan array binding signal (z-score),[11],0.5
same,glycan array binding signal (z-score),[12],0.189
same,glycan array binding signal (z-score),[13],1.24
same,glycan array binding signal (z-score),[14],0.241
same,glycan array binding signal (z-score),[15],1.06
same,glycan array binding signal (z-score),[16],0.34
same,glycan array binding signal (z-score),[17],0.116
same,glycan array binding signal (z-score),[18],0.403
same,glycan array binding signal (z-score),[19],0.271
same,glycan array binding signal (z-score),[20],-0.782
same,glycan array binding signal (z-score),[21],-0.226
same,glycan array binding signal (z-score),[22],-0.584
same,glycan array binding signal (z-score),[23],-0.497
same,glycan array binding signal (z-score),[24],0.157
same,glycan array binding signal (z-score),[25],1.51
same,glycan array binding signal (z-score),[26],0.955
same,glycan array binding signal (z-score),[27],1.74
same,glycan array binding signal (z-score),[28],-1.73
same,glycan array binding signal (z-score),[29],-0.385
same,glycan array binding signal (z-score),[30],-0.911
same,glycan array binding signal (z-score),[31],-0.126
same,glycan array binding signal (z-score),[32],-0.917
same,glycan array binding signal (z-score),[33],-0.591
same,glycan array binding signal (z-score),[34],-0.833
same,glycan array binding signal (z-score),[35],0.108
same,glycan array binding signal (z-score),[36],1.29
same,glycan array binding signal (z-score),[37],0.461
same,glycan array binding signal (z-score),[38],-0.805
same,glycan array binding signal (z-score),[39],0.422
same,glycan array binding signal (z-score),[40],-0.9
same,glycan array binding signal (z-score),[41],-1.44
same,glycan array binding signal (z-score),[42],-0.194
same,glycan array binding signal (z-score),[43],0.341
same,glycan array binding signal (z-score),[44],-0.831
same,glycan array binding signal (z-score),[45],-0.476

# Rewritten with bars between the fields: entries from further up
binder | measurement | setting | value
B1 | glycan array binding signal (z-score) | [10] | -0.639
same | glycan array binding signal (z-score) | [42] | -0.194
